Source: article PMC7819943, “Rice protein-binding microarrays: a tool to detect cis-acting elements near promoter regions in rice”
This is one part of the list.

Chains of the proteins cited; added tags and fusions are not shown.
UniProt Q0JBA9, entry or part of it: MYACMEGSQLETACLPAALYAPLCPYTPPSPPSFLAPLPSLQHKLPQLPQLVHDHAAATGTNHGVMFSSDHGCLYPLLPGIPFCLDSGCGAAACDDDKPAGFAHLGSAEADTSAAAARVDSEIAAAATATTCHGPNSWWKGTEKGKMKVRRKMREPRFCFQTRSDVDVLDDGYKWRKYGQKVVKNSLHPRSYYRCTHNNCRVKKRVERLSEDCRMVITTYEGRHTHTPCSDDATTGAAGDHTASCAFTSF

Each sequence was assayed against OsWRKY34 (Oryza sativa, UniProt Q0JBA9 1-250) (assay: protein-binding microarray (RPBM); PBS, 2% BSA, 51.3 ng/ul salmon testes DNA, 50 uM zinc acetate, 200 nM TF, 25 C, 1 h; high values mean tight binding). Details: protein: recombinant; tags: N-terminal polyhistidine and DsRed monomer fusion (pET32a); label: CyDye5-dUTP incorporated in the synthesized complementary strand; 3' TTTTT single-stranded linker to array surface; dsDNA, one strand shown.
Outline: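 Transcription factors were made in E. coli BL21-CodonPlus as N-terminal fusions to a polyhistidine tag and DsRed, then purified on Ni–NTA. After primer extension with Cy5-dUTP and blocking with 2% BSA, a custom Agilent array was exposed for 1 h at 25 °C to 200 nM protein in PBS, 2% BSA, salmon testes DNA and 50 µM zinc acetate. Washed arrays were scanned on an Axon 4000B, and the binding signal is per-feature fluorescence intensity in arbitrary units.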

Point of comparison: “TTCTCGCTGCTTCTACTACTCTTCCCGTGCTACGGTAGCGCGGAGTCACCTAGTGCAG”, binding signal 8920 fluorescence intensity (a.u.). Against it:
- TTAGGTCGTCAGGTGTTTCCTGTAGTTAGGGTTTGTCCTTCGGAGTCACCTAGTGCAG — lower, 8720 fluorescence intensity (a.u.)
- TCTGCGGCAAGTACTAAATTGACTTTTCTTATACTTTTTCCGGAGTCACCTAGTGCAG — higher, 10900 fluorescence intensity (a.u.)
- TTCTTCTTTTCCACGGCGCCGTCGCGAAGTTCTCCTCGATCGGAGTCACCTAGTGCAG — lower, 8630 fluorescence intensity (a.u.)
- CTGGTGATATTTCTCTGCTTCCAAGGCTTCCGGCTTTCTCCGGAGTCACCTAGTGCAG — higher, 10100 fluorescence intensity (a.u.)
- CCACCAGCGATTTGGCCCGATCTCATCCCACCAGCGATTTCGGAGTCACCTAGTGCAG — lower, 8430 fluorescence intensity (a.u.)
- ATGTATTGCAATTGTTGCATCTGTGGTCTGCCTTAAACATCGGAGTCACCTAGTGCAG — lower, 8530 fluorescence intensity (a.u.)
- AACCCCATTCTTAAGATAGTATAGTGTCAATTTTCTCAGCCGGAGTCACCTAGTGCAG — lower, 8060 fluorescence intensity (a.u.)
- GAACTACGTCACACACAGCTTGTCGGTTCTACATCTATATCGGAGTCACCTAGTGCAG — lower, 8570 fluorescence intensity (a.u.)
- AGAAAATCCCGATACGTCTCCGATACTCCAATCCCTAAATCGGAGTCACCTAGTGCAG — lower, 8740 fluorescence intensity (a.u.)
- ATAAATATATTTTTAGTTTTCCACACGTTCCGTTCCTTCCCGGAGTCACCTAGTGCAG — higher, 9120 fluorescence intensity (a.u.)
- TTTTCATATACTATCTGTTGAGTACTCTCTCTTTGTATTACGGAGTCACCTAGTGCAG — higher, 11700 fluorescence intensity (a.u.)
- CCGGATCGATCTCAACGAGGTTCCATTCGTCCATGCCGCCCGGAGTCACCTAGTGCAG — lower, 8500 fluorescence intensity (a.u.)
- TTTCCAATGTTTCTCCTTTGTCCCAAAGGAGCCCTCACAACGGAGTCACCTAGTGCAG — lower, 8640 fluorescence intensity (a.u.)
- CCCCGCCGTCCGCGCCGACCGCGACCTGCGCTACGCCGCCCGGAGTCACCTAGTGCAG — lower, 8450 fluorescence intensity (a.u.)
- CGTCCATGAGCTGTTAGCTGACATCCTTTTGCTGTATTGACGGAGTCACCTAGTGCAG — the same, 8920 fluorescence intensity (a.u.)
- AGGCGCCTCTGCCCAAACAGTTTGACCGATTTTTGTCAACCGGAGTCACCTAGTGCAG — higher, 10500 fluorescence intensity (a.u.)
- GATTTTCTCATCTTACCTTAGGCTGAGTTCTTATCTCTAGCGGAGTCACCTAGTGCAG — lower, 8370 fluorescence intensity (a.u.)
- GTGCTTGTGTGGCGCGTGTGCTTGTCACAGACTCTGCTCCCGGAGTCACCTAGTGCAG — lower, 8660 fluorescence intensity (a.u.)
- ACCTCTCCCATCGCCGTACGTCCCCAGGATCCCTTCCCATCGGAGTCACCTAGTGCAG — lower, 8230 fluorescence intensity (a.u.)
- GCTTCAGGGCTTTGCCATCTTGTCTGTCAGTGTTCACTAACGGAGTCACCTAGTGCAG — higher, 9480 fluorescence intensity (a.u.)
- ATCGACTCTCTCATGGGGTATATATAGTAGTACATAGGGGCGGAGTCACCTAGTGCAG — higher, 9120 fluorescence intensity (a.u.)
- CGACTACTCGGCCGGCCACCTGCGCCGTCTCTACCCCGAGCGGAGTCACCTAGTGCAG — higher, 9320 fluorescence intensity (a.u.)
- AGTTTCCTAATCTATTATATGATAGTACTCGGTCGGAGCTCGGAGTCACCTAGTGCAG — lower, 8480 fluorescence intensity (a.u.)
- AGCACCATCTCCATCCAATAATCCCCATGCTTGCGCACCACGGAGTCACCTAGTGCAG — higher, 10600 fluorescence intensity (a.u.)
- CCTCGCTTAGATTCGCCATTACCGCCGCTTTTGTTCCCACCGGAGTCACCTAGTGCAG — higher, 12000 fluorescence intensity (a.u.)
- TTGCCTATTTGAAACTGCCACTCAATGTGTTTATAAATCTCGGAGTCACCTAGTGCAG — higher, 9090 fluorescence intensity (a.u.)
- GTACCGTTTGGATGTGTACAGAGAGGGGTGTGGGGCTCAACGGAGTCACCTAGTGCAG — higher, 10300 fluorescence intensity (a.u.)
- CTACAGCCTCACACCGTCTCTCCTGCACCAGTTCCACGGACGGAGTCACCTAGTGCAG — higher, 9510 fluorescence intensity (a.u.)
- TTGTCCTATTGTAGCTGCTTTTCAATTGACGTCATAGAATCGGAGTCACCTAGTGCAG — lower, 8650 fluorescence intensity (a.u.)
- CATCTCATTTTGTTCTTTTATTCTCATCACGTTTAATTATCGGAGTCACCTAGTGCAG — higher, 9940 fluorescence intensity (a.u.)
- AGAAATTTAATATTGCATCTTTCTATCTCTCTAGCTATCCCGGAGTCACCTAGTGCAG — lower, 8270 fluorescence intensity (a.u.)
- GCTTTTGGACAGGGTTGACTTTACTTCTTTGAGCCTCTCACGGAGTCACCTAGTGCAG — higher, 14800 fluorescence intensity (a.u.)
- TAAGTGGACCTATAGGTGCACACGTGGGGAGAGGGGCGTGCGGAGTCACCTAGTGCAG — higher, 9170 fluorescence intensity (a.u.)
- GCAGCACTCAGCTCACCATTCTTCTGAGAGGTTTGTATAACGGAGTCACCTAGTGCAG — lower, 8430 fluorescence intensity (a.u.)
- ACTATCCAACCAAATCCGTTGCTTTCCATGACCACACACGCGGAGTCACCTAGTGCAG — lower, 8540 fluorescence intensity (a.u.)
- AGTGATCCGTTCATTCTTCGCTGCGCCTGCGATTTGTCCGCGGAGTCACCTAGTGCAG — lower, 8860 fluorescence intensity (a.u.)
- CTTGGGAATATGTCGCTCGGCCGACCTCTCGTATTATTGACGGAGTCACCTAGTGCAG — lower, 8740 fluorescence intensity (a.u.)
- CCGCCGCCATCCACACGCCGTGCCGCAGATCCTATCTCCCCGGAGTCACCTAGTGCAG — higher, 8930 fluorescence intensity (a.u.)
- CGCCGTGACAATTCCCGCTGTATCATCCGTTGTTCGGATCCGGAGTCACCTAGTGCAG — higher, 12200 fluorescence intensity (a.u.)
- AACACACCCTTAGTACTGGATCCAAACATCACATTACTCCCGGAGTCACCTAGTGCAG — lower, 8450 fluorescence intensity (a.u.)
- ATATTTTGCTTACACTGTTTGACTATTCGTCTTATAATTTCGGAGTCACCTAGTGCAG — higher, 14000 fluorescence intensity (a.u.)
